Chains of the proteins cited; added tags and fusions are not shown. Lines headed by an entry give the natural chain unless they say otherwise; changes in a name come on top.
UniProt P18054: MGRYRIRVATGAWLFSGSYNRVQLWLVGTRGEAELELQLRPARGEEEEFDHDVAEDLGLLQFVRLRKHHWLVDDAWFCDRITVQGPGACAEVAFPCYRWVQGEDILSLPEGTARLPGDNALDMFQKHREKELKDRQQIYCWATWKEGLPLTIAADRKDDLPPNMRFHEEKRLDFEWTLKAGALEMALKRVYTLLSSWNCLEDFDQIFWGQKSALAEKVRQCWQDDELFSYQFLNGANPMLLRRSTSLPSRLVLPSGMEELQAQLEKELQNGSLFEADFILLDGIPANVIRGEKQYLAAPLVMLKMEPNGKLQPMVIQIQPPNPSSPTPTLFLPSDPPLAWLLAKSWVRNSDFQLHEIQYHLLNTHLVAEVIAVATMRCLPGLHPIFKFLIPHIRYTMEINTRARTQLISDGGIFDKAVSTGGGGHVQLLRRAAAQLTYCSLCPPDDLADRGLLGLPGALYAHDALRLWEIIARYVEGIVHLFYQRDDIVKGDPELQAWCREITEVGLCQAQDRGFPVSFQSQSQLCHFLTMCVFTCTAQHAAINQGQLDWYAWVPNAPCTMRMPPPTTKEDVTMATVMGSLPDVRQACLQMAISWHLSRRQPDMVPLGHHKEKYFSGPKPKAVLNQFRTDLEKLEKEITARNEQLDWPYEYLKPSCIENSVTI

“And” between values parts separate entries of the source, which are not always exact repeats. Equal entries are not always repeated. About 6,100 (1.1%) of roughly 580,000 compounds were called active. This list was built around the results that the source calls inconclusive (neither active nor inactive); the mix of calls is not that of the screen. Calls come from the whole dose curve; as a rule, active = well fitted inhibition curve with a large enough effect; inconclusive = small, poorly fitted or top-dose-only effect, or another doubt; inactive = no such curve, though single readings can be large or run the other way. Potencies of inconclusive entries are doubtful fits and often do not repeat.
These compounds were tested against Polyunsaturated fatty acid lipoxygenase ALOX12 (Homo sapiens) (UniProt P18054) (assay: Primary qHTS assay for inhibitors of human arachidonate 12S-lipoxygenase (ALOX12): Round 2). Conditions: purified 12hLO, xylenol orange hydroperoxide absorbance; series mostly up to 108 µM.
In short: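 Hydroperoxide product was detected by ferrous iron/xylenol orange as the 573 to 405 nm absorbance ratio. Arachidonic acid at 40 uM (final) was turned over for 30 min at room temperature by 150 nM human 12hLO, pH 7.0 Hepes buffer, after 15 min compound preincubation.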
For Oc1ccc(N2CCN(C(c3cccnc3)c3nnnn3Cc3ccccc3)CC2)cc1 (centres undefined), the Potency was inconclusive: 3.55 µM [inhibitor, full curve].
For CCOC(=O)C1(CCOc2ccccc2)CCN(C(=O)c2ccc(-n3cccn3)cc2)CC1, the Potency was “inactive”.
For O=C(/C=C/c1ccccc1)NCCc1ccccc1, the Potency was inconclusive: 56.2 µM [inhibitor, single point].
CCOCCOC(=O)C(C)Oc1ccc2c(=O)c(Oc3cc(C)cc(C)c3)c(C(F)(F)F)oc2c1 (centres undefined) was tested, and the Potency was inconclusive: 22.4 µM [inhibitor, partial curve, poor fit].
For N[C@@H](CSCCCO)C(=O)O, the Potency was inconclusive: 0.7 µM [inhibitor, full curve, poor fit].
With CCc1ccc2nc(SCC(=O)Nc3nnc(C)s3)c(C)cc2c1 the Potency was inconclusive: 35.5 µM [inhibitor, single point].
With CCOc1ccccc1C(=O)N1CCC[C@H]1c1nc(-c2ccc(F)cc2)no1 the Potency was “inactive”.
With OC(CNCC1(c2ccccc2)CCCC1)COc1ccccc1 (centres undefined) the Potency was inconclusive: 1 µM [inhibitor, full curve].
In the case of O=C(CSCc1ccccc1Cl)N1CCN(c2ccc(Cl)cc2)CC1, the Potency is reported as inconclusive: 89.1 µM [inhibitor, partial curve, poor fit].
With Cc1ccc(/C=N/Nc2cccc(C(=O)O)c2)s1 the Potency was inconclusive: 112 µM [inhibitor, partial curve, poor fit].
In the case of O=C(NC(=S)Nc1cccnc1)c1ccccc1, the Potency is reported as inconclusive: 79.4 µM [inhibitor, partial curve, poor fit].
In the case of CC1=C(C(=O)OCc2ccc(C)cc2)C(c2cc3c(cc2Br)OCO3)CC(=O)N1 (centres undefined), the Potency is reported as inconclusive: 39.8 µM [inhibitor, partial curve, poor fit].
With O=C1CC(C(=O)O)C2(CCN(C(=O)C3(Cn4ccnc4)CC3)CC2)N1 (centres undefined) the Potency was inconclusive: 3.98 µM [inhibitor, full curve, poor fit].
In the case of CCOc1cc(NS(=O)(=O)c2ccc(OC)cc2)c(OCC)cc1NC(=O)c1ccco1, the Potency is reported as inconclusive: 44.7 µM [inhibitor, partial curve, poor fit].
In the case of O=C(CC(Nc1ccc(Cl)cc1)C(=O)O)c1ccccc1 (centres undefined), the Potency is reported as inconclusive: 39.8 µM [inhibitor, partial curve, poor fit] and inconclusive: 7.94 µM [inhibitor, partial curve].
With COC(=O)Cn1cc(/C=N/NC(=O)COc2cccc3cccnc23)c2ccccc21 the Potency was “inactive”.
COc1cc2c(cc1NC(=O)CSc1nc3ccccc3[nH]1)oc1ccccc12 was tested, and the Potency was inconclusive: 50.1 µM [inhibitor, partial curve, poor fit].
For CCOc1ccc(-n2nc3ccc(NC(=O)c4ccc5c(c4)OCCO5)cc3n2)cc1, the Potency was inconclusive: 89.1 µM [inhibitor, partial curve, poor fit].
In the case of COc1ccc(NC(=O)c2cc3cccc(OC)c3oc2=O)c(OC)c1, the Potency is reported as inconclusive: 126 µM [inhibitor, single point].
Cc1ccsc1C(=O)OC(C)C(=O)Nc1ccc(Cl)cn1 (centres undefined) was tested, and the Potency was “inactive”.
For O=C(Cc1ccccc1)NC(Nc1cccc2ccccc12)C(Cl)(Cl)Cl (centres undefined), the Potency was inconclusive: 22.4 µM [inhibitor, partial curve, poor fit].
In the case of Cc1cc(C(=O)NNS(=O)(=O)c2ccccc2C(F)(F)F)nn1C(C)(C)C, the Potency is reported as inconclusive: 44.7 µM [inhibitor, partial curve, poor fit].
For CN(Cc1nc(-c2ccccc2)no1)CC1(O)CNCCOC1 (centres undefined), the Potency was inconclusive: 17.8 µM [inhibitor, single point].
CSc1ccccc1OCc1cc(C(=O)NC2CCOC(C)(C)C2)no1 (centres undefined) was tested, and the Potency was inconclusive: 39.8 µM [inhibitor, partial curve, poor fit].
With CCN(C(=O)COC(=O)/C=C/c1c(C)nn(-c2ccccc2)c1C)c1c(N)n(Cc2ccccc2)c(=O)[nH]c1=O the Potency was inconclusive: 79.4 µM [inhibitor, single point].
For CN(C)CCCNC(=S)Nc1ccc(-c2ccccc2)cc1, the Potency was inconclusive: 100 µM [inhibitor, single point].
In the case of COc1ccc2cc(/C=C3\SC(=O)NC3=O)ccc2c1, the Potency is reported as “inactive”.
For C[C@H]1CN([C@@H](C)CO)C(=O)c2cc(-c3ccccc3F)cnc2O[C@@H]1CN(C)C(=O)NC1CCCCC1, the Potency was inconclusive: 79.4 µM [inhibitor, single point].
With Cc1ccc(N2C(=O)/C(=C/c3ccco3)SC2=S)cc1 the Potency was active: 17.8 µM.
OC(c1ccc(Cl)c(Cl)c1)c1ncc(-c2ccccc2F)[nH]1 (centres undefined) was tested, and the Potency was inconclusive: 35.5 µM [inhibitor, partial curve, poor fit].
With CCOC(=O)C1(C)NC(c2ccc(OC)c(OC)c2)C2C(=O)N(c3cccc(C(C)=O)c3)C(=O)C21 (centres undefined) the Potency was “inactive”.
In the case of O=[N+]([O-])c1ccc(Nc2nc(N/N=C\c3ccc4c(c3)OCO4)nc(N3CCCCC3)n2)cc1, the Potency is reported as inconclusive: 100 µM [inhibitor, single point].
With COc1ccc(NS(=O)(=O)c2cc(-c3cnc(C)o3)ccc2OC)cc1 the Potency was inconclusive: 70.8 µM [inhibitor, partial curve, poor fit].
In the case of CC(=O)Nc1nnc([N+](=O)[O-])s1, the Potency is reported as inconclusive: 35.5 µM [inhibitor, partial curve, poor fit].
O=C(NCc1ccco1)/C(=C/c1ccco1)NC(=O)c1ccco1 was tested, and the Potency was “inactive”.
COc1cc(C[C@@H](C)[C@@H](C)Cc2ccc(O)c(OC)c2)ccc1O was tested, and the Potency was inconclusive: 79.4 µM [inhibitor, partial curve, poor fit].
For CCCOc1ccc(NC(=O)COc2ccc(C)c(C)c2)c2cccnc12, the Potency was “inactive”.
COc1cc(/C=C(\C#N)c2nc3ccccc3[nH]2)cc(OC)c1O was tested, and the Potency was inconclusive: 50.1 µM [inhibitor, partial curve, poor fit].
With Cc1cc(C)c2oc(-c3cccc(NC(=O)COc4ccc([N+](=O)[O-])cc4)c3)nc2c1 the Potency was inconclusive: 31.6 µM [inhibitor, single point].
With Cc1ccc(Cl)cc1N1CCN(C(=O)c2ccc(CS(=O)(=O)c3ccccc3C)o2)CC1 the Potency was “inactive”.
With CCCC(c1nnnn1Cc1ccco1)N1CCN(c2ccccc2)CC1 (centres undefined) the Potency was “inactive”.
With COc1cc(C(=O)NCC(c2cccs2)S(=O)(=O)c2cccs2)cc(OC)c1OC (centres undefined) the Potency was “inactive”.
For Cc1ccc(Nc2nc(-c3ccc([N+](=O)[O-])cc3)cs2)cc1, the Potency was inconclusive: 0.794 µM [inhibitor, full curve, poor fit].
With CCc1ccc(C(C)(c2ccc(O)cc2)c2ccc(O)cc2)cc1 the Potency was inconclusive: 50.1 µM [inhibitor, partial curve, poor fit].
O=C(CCS(=O)CCC(=O)NCCc1ccccc1)NCCc1ccccc1 was tested, and the Potency was inconclusive: 44.7 µM [inhibitor, partial curve, poor fit].
For COc1cccc(Nc2nc(-c3sc(N)nc3C)cs2)c1, the Potency was inconclusive: 35.5 µM [inhibitor, partial curve, poor fit].
For Cc1cc(N2C(=O)C(O)=C(C(=O)c3ccco3)C2c2ccc(O)cc2)no1 (centres undefined), the Potency was inconclusive: 44.7 µM [inhibitor, partial curve, poor fit].
Cc1ccc(Cl)cc1NC(=O)Cn1c(N2CCCCC2)nc(C)c(C)c1=O was tested, and the Potency was “inactive”.
O=C(Nc1ccccc1F)c1nc2ccccc2nc1N1CCCC1 was tested, and the Potency was inconclusive: 7.94 µM [inhibitor, partial curve, poor fit].
Cc1cccc2c1NC(=O)C2(c1ccc(O)cc1)c1ccc(O)cc1 was tested, and the Potency was inconclusive: 126 µM [inhibitor, single point].
CC(C)(C)OC(=O)N1CCC(C(=O)N[C@@H](Cc2c[nH]c3ccccc23)C(=O)O)CC1 was tested, and the Potency was inconclusive: 39.8 µM [inhibitor, single point].
O=C(Nc1cccc(Cl)c1)c1cnc(N2CCOCC2)c2ccccc12 was tested, and the Potency was inconclusive: 100 µM [inhibitor, single point].
For COC(=O)c1cccc(S(=O)(=O)Nc2ccc(Cl)c3cccnc23)c1, the Potency was inconclusive: 22.4 µM [inhibitor, partial curve, poor fit].
For O=C(Cc1cccc(C(F)(F)F)c1)NCC1(N2CCCCC2)CCCCC1, the Potency was inconclusive: 44.7 µM [inhibitor, partial curve, poor fit].
With O=C(NC(=S)Nc1ccc(S(=O)(=O)N2CCCCC2)cc1)c1ccccc1 the Potency was active: 12.6 µM.
For C=CCn1c(CNC(=O)c2cccs2)nnc1SCc1ccc(Cl)cc1Cl, the Potency was “inactive”.
COC(=O)c1ccc2nc(-c3ccco3)c(Cc3cccc(Cl)c3)n2c1 was tested, and the Potency was active: 15.8 µM.
In the case of Cc1noc(NS(=O)(=O)c2ccc(N/C=C\C(=O)c3ccc(F)cc3)cc2)c1C, the Potency is reported as inconclusive: 7.08 µM [inhibitor, full curve, poor fit].
In the case of COc1cc2ccccc2cc1C(=O)N1CCN(CC(=O)Nc2ccccc2Cl)CC1, the Potency is reported as “inactive”.
CCCOc1ccc(/C=C(/C#N)c2nc3ccccc3[nH]2)cc1 was tested, and the Potency was inconclusive: 89.1 µM [inhibitor, partial curve, poor fit].
In the case of CCCc1ccc(-c2cc(C(=O)N/N=C/c3ccc([N+](=O)[O-])o3)c3ccccc3n2)cc1, the Potency is reported as “inactive”.
In the case of CC(Sc1nc2ccccc2o1)C(=O)NCC1CCCCC1 (centres undefined), the Potency is reported as inconclusive: 100 µM [inhibitor, partial curve, poor fit].
With CC(=O)C1C(=O)CC(C)(O)C(C(C)=O)C1c1ccc(O)cc1 (centres undefined) the Potency was “inactive”.
For COC(=O)[C@]12CCCCC=C1N(Cc1ccccc1)C(=O)[C@H](CC(=O)NCC1CCCCC1)C2, the Potency was inconclusive: 89.1 µM [inhibitor, partial curve, poor fit].
Potency is the fitted concentration of half-maximal effect.
